Assay results from PMC2951910.
No constants are given. Whether binding was seen depends on the method and setting. Binding seen in cells or lysates may run through a third protein. Some binding calls cover weakened binding; strength is not graded here.

Chains of the proteins cited; added tags and fusions are not shown.
UniProt Q5S006: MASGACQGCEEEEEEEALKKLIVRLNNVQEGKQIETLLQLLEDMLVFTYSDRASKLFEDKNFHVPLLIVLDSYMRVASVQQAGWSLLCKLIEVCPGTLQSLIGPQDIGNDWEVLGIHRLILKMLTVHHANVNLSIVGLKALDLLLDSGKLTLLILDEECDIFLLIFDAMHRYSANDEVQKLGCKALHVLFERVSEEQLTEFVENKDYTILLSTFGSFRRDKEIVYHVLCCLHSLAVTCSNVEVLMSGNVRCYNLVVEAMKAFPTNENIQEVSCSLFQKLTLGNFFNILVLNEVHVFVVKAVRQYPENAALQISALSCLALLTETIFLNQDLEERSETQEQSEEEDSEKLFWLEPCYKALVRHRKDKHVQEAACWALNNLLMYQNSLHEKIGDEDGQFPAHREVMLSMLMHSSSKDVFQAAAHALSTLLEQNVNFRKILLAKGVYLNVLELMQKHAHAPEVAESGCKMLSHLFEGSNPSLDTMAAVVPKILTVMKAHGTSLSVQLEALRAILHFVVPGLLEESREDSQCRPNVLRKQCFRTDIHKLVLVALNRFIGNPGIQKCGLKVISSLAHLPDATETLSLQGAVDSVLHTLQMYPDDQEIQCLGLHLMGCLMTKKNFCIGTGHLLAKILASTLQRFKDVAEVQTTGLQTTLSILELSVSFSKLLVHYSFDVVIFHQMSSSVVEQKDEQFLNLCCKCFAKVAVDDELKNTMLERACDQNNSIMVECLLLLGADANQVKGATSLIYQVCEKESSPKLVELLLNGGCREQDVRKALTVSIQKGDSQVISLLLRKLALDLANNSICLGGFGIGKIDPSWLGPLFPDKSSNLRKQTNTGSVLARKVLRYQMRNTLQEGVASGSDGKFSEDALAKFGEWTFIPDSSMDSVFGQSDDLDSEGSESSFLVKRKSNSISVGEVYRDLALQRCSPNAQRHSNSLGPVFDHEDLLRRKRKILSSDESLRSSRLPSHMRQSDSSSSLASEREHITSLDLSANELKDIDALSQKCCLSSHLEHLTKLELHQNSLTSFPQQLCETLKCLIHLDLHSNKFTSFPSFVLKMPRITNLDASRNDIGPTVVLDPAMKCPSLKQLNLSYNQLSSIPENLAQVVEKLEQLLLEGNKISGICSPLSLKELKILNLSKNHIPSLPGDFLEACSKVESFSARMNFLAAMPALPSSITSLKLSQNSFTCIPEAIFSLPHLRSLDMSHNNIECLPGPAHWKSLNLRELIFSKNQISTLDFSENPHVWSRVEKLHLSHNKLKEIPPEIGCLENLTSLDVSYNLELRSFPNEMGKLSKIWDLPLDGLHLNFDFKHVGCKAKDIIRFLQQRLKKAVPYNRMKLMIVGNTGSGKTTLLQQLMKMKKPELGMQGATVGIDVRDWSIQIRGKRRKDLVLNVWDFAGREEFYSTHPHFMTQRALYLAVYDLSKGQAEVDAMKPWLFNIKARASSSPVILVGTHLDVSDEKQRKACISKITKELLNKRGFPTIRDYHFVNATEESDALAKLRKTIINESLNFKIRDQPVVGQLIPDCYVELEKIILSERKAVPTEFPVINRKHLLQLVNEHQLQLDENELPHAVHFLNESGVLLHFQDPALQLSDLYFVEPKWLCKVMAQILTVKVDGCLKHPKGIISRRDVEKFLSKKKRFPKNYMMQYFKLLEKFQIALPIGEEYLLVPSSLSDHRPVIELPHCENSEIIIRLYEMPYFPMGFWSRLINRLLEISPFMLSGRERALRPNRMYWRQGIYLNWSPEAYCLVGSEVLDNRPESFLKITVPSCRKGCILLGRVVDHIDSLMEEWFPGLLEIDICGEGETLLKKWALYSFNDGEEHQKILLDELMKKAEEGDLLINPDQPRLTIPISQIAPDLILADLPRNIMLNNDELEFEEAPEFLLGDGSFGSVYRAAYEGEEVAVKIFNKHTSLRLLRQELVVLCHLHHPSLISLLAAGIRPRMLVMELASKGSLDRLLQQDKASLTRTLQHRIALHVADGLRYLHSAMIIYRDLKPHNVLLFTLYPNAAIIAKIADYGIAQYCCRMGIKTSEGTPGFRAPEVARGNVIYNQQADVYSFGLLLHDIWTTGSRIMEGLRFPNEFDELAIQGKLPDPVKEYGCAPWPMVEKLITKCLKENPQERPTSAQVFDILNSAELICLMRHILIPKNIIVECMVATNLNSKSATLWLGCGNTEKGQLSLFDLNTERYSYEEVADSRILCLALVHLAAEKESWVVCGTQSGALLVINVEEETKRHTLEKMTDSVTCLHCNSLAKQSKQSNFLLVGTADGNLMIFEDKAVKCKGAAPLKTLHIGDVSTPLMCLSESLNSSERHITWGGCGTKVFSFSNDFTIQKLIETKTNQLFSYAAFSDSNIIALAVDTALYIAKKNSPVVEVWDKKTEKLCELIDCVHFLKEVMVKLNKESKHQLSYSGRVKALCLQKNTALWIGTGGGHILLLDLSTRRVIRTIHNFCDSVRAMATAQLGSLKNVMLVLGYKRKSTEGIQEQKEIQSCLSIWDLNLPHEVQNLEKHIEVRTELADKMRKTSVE

Biological target: T1, endogenous PKC zeta (mouse brain) (mouse (endogenous in C57BL/6 brain)) (UniProt Q02956)
T1 sequence: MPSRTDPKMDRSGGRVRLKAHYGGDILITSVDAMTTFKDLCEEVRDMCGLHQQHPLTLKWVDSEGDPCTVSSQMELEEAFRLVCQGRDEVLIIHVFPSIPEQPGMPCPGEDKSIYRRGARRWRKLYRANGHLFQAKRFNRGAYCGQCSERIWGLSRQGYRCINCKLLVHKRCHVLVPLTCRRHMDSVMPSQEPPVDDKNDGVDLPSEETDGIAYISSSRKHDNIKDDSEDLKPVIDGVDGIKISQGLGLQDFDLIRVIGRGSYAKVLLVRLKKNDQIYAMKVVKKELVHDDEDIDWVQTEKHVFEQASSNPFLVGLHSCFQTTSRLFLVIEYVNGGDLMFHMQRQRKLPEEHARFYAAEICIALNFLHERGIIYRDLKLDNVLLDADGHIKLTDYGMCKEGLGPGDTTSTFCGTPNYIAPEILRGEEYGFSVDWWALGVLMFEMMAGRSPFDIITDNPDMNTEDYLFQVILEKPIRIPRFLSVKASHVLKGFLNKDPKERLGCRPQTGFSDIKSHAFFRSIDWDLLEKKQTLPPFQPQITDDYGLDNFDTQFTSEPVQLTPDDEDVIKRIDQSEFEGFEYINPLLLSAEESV
Assay: co-IP; C57BL/6 mouse brain lysate (3 mg protein, 1% Triton X-100); goat polyclonal anti-PKC zeta on protein G beads overnight at 4 C; washes included lysis buffer plus 0.5 M NaCl; blot with anti-LRRK2 (clone 1E11); pre-immune serum as control

For “endogenous LRRK2 (mouse brain) (from UniProt Q5S006 1-2527)”, which binding is on record?
Its binding is “binds”.
